In the experiment the test system is nude mice, LX-1 lung xenograft intrarenal, tumor weight T/C. Nature of the experiment: NCI In Vivo Anticancer Drug Screen. Data for tumor model Human Lung LX-1 Xenograft (intrarenal inoculation) in NU/NU Swiss (nude) mice. To be noted: T/C endpoint: mean tumor weight change, higher T/C = larger tumour; for T/C: evaluated on day 11. Put shortly:
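In vivo, transplantable tumor; compound vs vehicle arms; tumor size measured; value = T/C.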
On the technique in general: Xenograft models place foreign cells or tissue in a host animal.

Where [1] appears, read: dose: 2.0 mg/kg/injection, schedule: Q01DX010 (sc), vehicle: water.
[2] abbreviates: dose: 24.0 mg/kg/injection, schedule: Q04DX003 (sc), vehicle: water.
Setting [3] is: dose: 32.0 mg/kg/injection, schedule: Q01DX010 (sc), vehicle: water.
The mark [4] stands for this setting: dose: 2.0 mg/kg/injection, schedule: Q01DX010 (ip), vehicle: water.
[5] abbreviates: dose: 4.0 mg/kg/injection, schedule: Q01DX010 (sc), vehicle: water.
The mark [6] stands for this setting: dose: 6.0 mg/kg/injection, schedule: Q04DX003 (sc), vehicle: water.
Setting [7] is: dose: 12.0 mg/kg/injection, schedule: Q04DX003 (sc), vehicle: water.

The list does not hold the whole screen: it gathers tests that were run many times, whatever their T/C, doses with no T/C, and many T/C values between a quarter and a half above the control. Other doses and runs of a compound stand elsewhere. T/C: endpoint of the treated group in % of that of the vehicle group. Schedule codes are those of the source, read here as Q, the interval in days (D) or hours (H), X, the number of doses. Some T/C values are followed by the survivors on the day toxicity was checked, most often the fifth; where none is given, no animal had died by that day. Some values lie below zero, which means that the treated tumours became smaller. Some doses were run more than once; the results are listed from low to high. Some entries give survivors of the animals treated and no T/C: the source holds a T/C of zero for them, seemingly a mark for toxic or unscored doses. Counts of survivors are from the toxicity check (mostly the fifth day) where no day follows; animals may have died later.

As for `CN(CO)c1nc(N(C)CO)nc(N(C)CO)n1`, the survivor count was 0 of 5 (dose: 25.0 mg/kg/injection, schedule: Q01DX008 (ip), vehicle: saline); 0 of 5 (dose: 50.0 mg/kg/injection, schedule: Q01DX008 (ip), vehicle: saline); 0 of 5 and 1 of 5 (dose: 100.0 mg/kg/injection, schedule: Q01DX008 (ip), vehicle: saline); 0 of 5 (dose: 200.0 mg/kg/injection, schedule: Q01DX008 (ip), vehicle: saline); 0 of 3 on day 11 (dose: 200.0 mg/kg/injection, schedule: Q01DX010 (sc), vehicle: saline).
As to `CC1OC(OC2CC(O)(C(=O)CO)Cc3c(O)c4c(c(O)c32)C(=O)c2ccccc2C4=O)CC(N)C1O` (centres undefined), for the setting “dose: 0.25 mg/kg/injection, schedule: Q01DX010 (sc), vehicle: water”, the T/C is 138 % of control [2 of 2 alive on day 11]. Under setting [1], the survivor count is 0 of 3 on day 11.
In the case of `c1cc[c]([Sn][c]2ccccc2)cc1`, the T/C (dose: 5.0 mg/kg/injection, schedule: Q01DX010 (sc), vehicle: saline) was 131 % of control.
For `O=C(O)C(CSC(c1ccccc1)(c1ccccc1)c1ccccc1)N=Cc1cccs1` (centres undefined), where the note is “dose: 800.0 mg/kg/injection, schedule: Q04DX003 (sc), vehicle: suspension in saline”, the survivor count is recorded as 1 of 6 on day 11.
`COc1cccc2c1C(=O)c1c(O)c3c(c(O)c1C2=O)C[C@@](O)(/C(C)=N/NC(=O)c1ccc(Cl)cc1)C[C@@H]3OC1CC(N)C(O)C(C)O1` (some centres undefined): under setting [2], the T/C was 129 % of control. Further, under setting [3], the survivor count is recorded as 0 of 3 on day 11.
As to `COc1cccc2c1C(=O)c1c(O)c3c(c(O)c1C2=O)C[C@@](O)(/C(C)=N/NC(=O)c1cccc([N+](=O)[O-])c1)C[C@@H]3OC1CC(N)C(O)C(C)O1` (some centres undefined), under setting [3], the survivor count was 0 of 3 on day 11.
As to `CCCCCCCC(=O)OCC(=O)[C@]1(O)Cc2c(O)c3c(c(O)c2[C@@H](OC2CC(N)C(O)C(C)O2)C1)C(=O)c1c(OC)cccc1C3=O` (some centres undefined), the survivor count reads like this: (dose: 8.0 mg/kg/injection, schedule: Q01DX010 (sc), vehicle: saline) 1 of 3 on day 11; (dose: 16.0 mg/kg/injection, schedule: Q01DX010 (sc), vehicle: saline) 0 of 3 on day 11.
Turning to `O=C(NO)c1ccc(O)c(O)c1`, the survivor count (dose: 1600.0 mg/kg/injection, schedule: Q04DX003 (sc), vehicle: distilled water + Tween-80) is given as 0 of 6 on day 11.
On to `COc1cc(C(=O)N/N=C/c2cccc([N+](=O)[O-])c2)cc(OC)c1OC`, for which the T/C runs as follows: (dose: 300.0 mg/kg/injection, schedule: Q04DX003 (sc), vehicle: saline with Tween-80) 146 % of control; (dose: 600.0 mg/kg/injection, schedule: Q04DX003 (sc), vehicle: saline with Tween-80) 146 % of control; (dose: 1200.0 mg/kg/injection, schedule: Q04DX003 (sc), vehicle: saline with Tween-80) 130 % of control.
In the case of `O=CC(NC(=O)N(CCCl)N=O)C(O)C(O)C(O)CO` (centres undefined), the T/C is 136 % of control (dose: 3.0 mg/kg/injection, schedule: Q01DX010 (sc), vehicle: Klucel (hydroxypropylcellulose) (HPC)) and 134 % of control (dose: 6.0 mg/kg/injection, schedule: Q01DX010 (sc), vehicle: Klucel (hydroxypropylcellulose) (HPC)). The survivor count is reported as 1 of 2 on day 11 (dose: 12.0 mg/kg/injection, schedule: Q01DX010 (sc), vehicle: Klucel (hydroxypropylcellulose) (HPC)) and 0 of 3 on day 11 (dose: 24.0 mg/kg/injection, schedule: Q01DX010 (sc), vehicle: Klucel (hydroxypropylcellulose) (HPC)).
For the compound `COc1cccc2c1C(=O)c1c(O)c3c(c(O)c1C2=O)C[C@H](O)C[C@@H]3OC1CC(N)C(O)C(C)O1` (some centres undefined), the survivor count (dose: 50.0 mg/kg/injection, schedule: Q01DX010 (sc), vehicle: saline) is given as 0 of 3 on day 11.
For the compound `COc1cccc2c1C(=O)c1c(O)c3c(c(O)c1C2=O)C[C@@](O)(C(=O)CO)C[C@@H]3OC1CC(N)C(O)C(C)O1` (some centres undefined), the T/C is, setting by setting: (dose: 0.5 mg/kg/injection, schedule: Q01DX010 (ip), vehicle: water) 30, 57, 58 [2 of 2 alive on day 11], 70 % of control; (dose: 0.5 mg/kg/injection, schedule: Q01DX010 (sc), vehicle: water) 62, 80, 82, 120 % of control [2 of 2 alive on day 11]; (dose: 1.0 mg/kg/injection, schedule: Q01DX010 (ip), vehicle: water) 18 [2 of 3 alive on day 11], 24, 36 [2 of 2 alive on day 11], 67 % of control [2 of 3 alive on day 11]; (dose: 1.0 mg/kg/injection, schedule: Q01DX010 (sc), vehicle: water) 34, 52 [2 of 2 alive on day 11], 72 [2 of 3 alive on day 11], 113 % of control; under setting [4], 35 % of control [2 of 3 alive on day 11]; under setting [1], -63, 10 [2 of 2 alive on day 11], 13, 40, 44, 46, 46 [2 of 3 alive on day 11], 74, 80, 171 % of control. Moreover, the T/C under setting [5] was -80 [2 of 3 alive on day 11], 8, 23, 26, 27, 62, 66 % of control; the T/C (dose: 4.0 mg/kg/injection, schedule: Q04DX003 (sc), vehicle: water) is 145 % of control; the T/C under setting [6] is 2, 4, 30 [2 of 3 alive on day 11], 80 % of control; the T/C under setting [7] is -56 and 2 % of control [2 of 2 alive on day 11]. For the same compound, the survivor count reads like this: under setting [4], 0 of 3 on day 11 and 1 of 3 on day 11; (dose: 4.0 mg/kg/injection, schedule: Q01DX010 (ip), vehicle: water) 0 of 2 on day 11 and 0 of 3 on day 11; under setting [5], 0 of 3 on day 11, 1 of 3 on day 11, 1 of 2 on day 11; under setting [6], 1 of 3 on day 11; under setting [7], 0 of 3 on day 11 and 1 of 3 on day 11; (dose: 18.0 mg/kg/injection, schedule: Q04DX003 (sc), vehicle: saline) 1 of 3 on day 11. Also, the survivor count (dose: 36.0 mg/kg/injection, schedule: Q04DX003 (sc), vehicle: saline) is recorded as 0 of 3 on day 11.
With `O=C(O)CC(NC(=O)CP(=O)(O)O)C(=O)O` (centres undefined), for the setting “dose: 100.0 mg/kg/injection, schedule: Q01DX010 (sc), vehicle: saline”, the T/C is 130 % of control [2 of 2 alive on day 11]. For the same compound, for the setting “dose: 800.0 mg/kg/injection, schedule: Q01DX010 (sc), vehicle: saline”, the survivor count is 0 of 2 on day 11.
As for `C[C@]12CCC(=O)C=C1CC[C@@H]1[C@@H]2[C@@H](O)C[C@@]2(C)[C@H]1CC[C@]2(O)C(=O)CO`, the survivor count (dose: 600.0 mg/kg/injection, schedule: Q04DX003 (sc), vehicle: Klucel (hydroxypropylcellulose) (HPC)) was 3 of 5 on day 11; the survivor count (dose: 1200.0 mg/kg/injection, schedule: Q04DX003 (sc), vehicle: Klucel (hydroxypropylcellulose) (HPC)) is 1 of 5 on day 11; the survivor count (dose: 2400.0 mg/kg/injection, schedule: Q04DX003 (sc), vehicle: Klucel (hydroxypropylcellulose) (HPC)) was 0 of 6 on day 11.
`C=C1C(=O)OC2CC(C)C3C4OC4C(O)C3(C)C(O)C12` (centres undefined): the T/C is, setting by setting: (dose: 200.0 mg/kg/injection, schedule: Q04DX003 (sc), vehicle: saline with Tween-80) 127 % of control; (dose: 400.0 mg/kg/injection, schedule: Q04DX003 (sc), vehicle: saline with Tween-80) 140 % of control.
As for `CCC1=C[C@H]2CN(CCc3c([nH]c4ccccc34)[C@@](C(=O)OC)(c3cc4c(cc3OC)N(C)[C@H]3[C@@](O)(C(=O)OC)[C@H](OC(C)=O)[C@]5(CC)C=CCN6CC[C@]43[C@@H]65)C2)C1`, the survivor count under setting [2] is 2 of 6 on day 11 and the survivor count (dose: 48.0 mg/kg/injection, schedule: Q04DX003 (sc), vehicle: water) is on record as 3 of 6 on day 11.

The values are drawn from PubChem BioAssay AID264 (DTP/NCI, 2004).
